Assay results reported in patent US10843990B2, “Processes for preparing calix[4]arenes from calix[8]arenes” (SI GROUP, INC., priority 2018, dated 2020).
At least one compound was matched to its structure with a doubt left.

Test: Solubility (concentration) of calixarene in organic solvents at various dissolution temperatures
Conditions: room temperature, FIG. 5

CC(C)(C)c1cc2c(O)c(c1)Cc1cc(C(C)(C)C)cc(c1O)Cc1cc(C(C)(C)C)cc(c1O)Cc1cc(C(C)(C)C)cc(c1O)C2 [tert-butylcalix[4]arene]
solubility in toluene (toluene): about 0% or 0.1 | solubility in xylene (xylene): about 0% or 0.1
